# Data from patent US20230041692A1 (THE UNIVERSITY OF SYDNEY, priority 2019, published 2023).
# End groups of sequences in plain letters are not given here.
# Test: peptide made by a vendor
# Details: whole synthesis, TFA salt
sequence,measurement,value
APFLLEDPANQFLRLKR,final purity (method not given),99.9%
